Test results from patent US20140199302A1 (GENERAL HOSPITAL, published 2014).
No constants are given. Whether binding was seen depends on the method and setting. Some results given as binding are weak or reduced against the parent protein; the word gives no strength. Tags and fused reporters may be left off the sequences shown.

Amino acid sequences for entries named in this document (tags omitted). Residues count along the entry.
UniProt P22004, residues 382-513: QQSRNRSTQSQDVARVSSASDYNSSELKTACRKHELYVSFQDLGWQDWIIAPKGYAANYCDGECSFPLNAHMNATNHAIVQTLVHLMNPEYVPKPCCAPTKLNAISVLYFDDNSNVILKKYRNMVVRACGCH

Target: human BMP6 (human) (UniProt P22004)
Test: SPR (Biacore), human BMP6 immobilized on CM5 chip

binding: binds
B1: soluble human hemojuvelin with a HIS-tag (HJV.His) (receptor, UniProt Q6ZVN8 36-400, looked up, not shown: small tags and cut ends)
chain: QCKILRCNAEYVSSTLSLRGGGSSGALRGGGGGGRGGGVGSGGLCRALRSYALCTRRTARTCRGDLAFHSAVHGIEDLMIQHNCSRQGPTAPPPPRGPALPGAGSGLPAPDPCDYEGRFSRLHGRPPGFLHCASFGDPHVRSFHHHFHTCRVQGAWPLLDNDFLFVQATSSPMALGANATATRKLTIIFKNMQECIDQKVYQAEVDNLPVAFEDGSINGGDRPGGSSLSIQTANPGNHVEIQAAYIGTTIIIRQTAGQLSFSIKVAEDVAMAFSAEQDLQLCVGGCPPSQRLSRSERNRRGAITIDTARRLCKEGLPVEDAYFHSCVFDVLISGDPNFTVAAQAALEDARAFLPDLEKLHLFPSD
